This note sets out measurements from PMC10989685.

Protein sequences, listed by entry. Tags and fused reporters are not part of them. Residues count along the entry.
UniProt E9Q7X7, residues 29-1634: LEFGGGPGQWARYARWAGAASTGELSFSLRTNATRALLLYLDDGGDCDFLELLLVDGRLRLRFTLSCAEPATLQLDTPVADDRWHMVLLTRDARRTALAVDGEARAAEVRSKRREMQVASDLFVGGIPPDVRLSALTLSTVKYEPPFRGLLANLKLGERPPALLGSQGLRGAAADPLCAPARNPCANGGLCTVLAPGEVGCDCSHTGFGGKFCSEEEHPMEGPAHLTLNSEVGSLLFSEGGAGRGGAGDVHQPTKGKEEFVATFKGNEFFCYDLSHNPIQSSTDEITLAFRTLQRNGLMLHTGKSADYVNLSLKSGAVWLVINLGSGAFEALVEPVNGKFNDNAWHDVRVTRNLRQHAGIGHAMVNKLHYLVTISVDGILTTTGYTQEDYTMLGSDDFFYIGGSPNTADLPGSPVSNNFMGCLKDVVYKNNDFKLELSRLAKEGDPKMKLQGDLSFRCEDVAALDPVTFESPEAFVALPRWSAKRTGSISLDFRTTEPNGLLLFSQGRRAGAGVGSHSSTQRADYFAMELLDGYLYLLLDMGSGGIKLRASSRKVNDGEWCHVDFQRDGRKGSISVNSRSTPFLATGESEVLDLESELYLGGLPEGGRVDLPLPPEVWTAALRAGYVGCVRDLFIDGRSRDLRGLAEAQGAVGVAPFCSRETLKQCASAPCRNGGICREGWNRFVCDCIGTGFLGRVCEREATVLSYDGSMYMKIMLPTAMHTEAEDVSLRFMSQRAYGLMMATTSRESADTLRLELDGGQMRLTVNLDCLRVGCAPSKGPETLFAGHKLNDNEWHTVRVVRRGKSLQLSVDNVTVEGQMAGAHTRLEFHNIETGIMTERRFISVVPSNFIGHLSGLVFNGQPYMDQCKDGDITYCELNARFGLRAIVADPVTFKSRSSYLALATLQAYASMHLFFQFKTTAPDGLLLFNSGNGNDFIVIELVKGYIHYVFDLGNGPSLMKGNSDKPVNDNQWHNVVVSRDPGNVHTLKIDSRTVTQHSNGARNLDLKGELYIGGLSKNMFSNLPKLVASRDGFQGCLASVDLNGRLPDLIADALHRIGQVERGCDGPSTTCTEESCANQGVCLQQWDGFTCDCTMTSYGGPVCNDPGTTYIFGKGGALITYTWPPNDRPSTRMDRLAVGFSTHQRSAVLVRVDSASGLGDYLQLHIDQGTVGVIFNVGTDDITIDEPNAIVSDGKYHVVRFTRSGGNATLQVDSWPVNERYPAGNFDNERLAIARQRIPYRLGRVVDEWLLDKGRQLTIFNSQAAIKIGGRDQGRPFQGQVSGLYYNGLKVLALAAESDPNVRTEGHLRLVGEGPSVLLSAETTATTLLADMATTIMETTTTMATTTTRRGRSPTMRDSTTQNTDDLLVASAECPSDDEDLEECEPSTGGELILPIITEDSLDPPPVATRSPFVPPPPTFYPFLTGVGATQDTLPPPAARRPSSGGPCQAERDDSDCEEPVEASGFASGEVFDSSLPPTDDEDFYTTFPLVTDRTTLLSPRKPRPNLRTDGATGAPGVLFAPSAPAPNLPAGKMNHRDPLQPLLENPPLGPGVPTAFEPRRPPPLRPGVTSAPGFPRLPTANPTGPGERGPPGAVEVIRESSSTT

Where a chain is given by its changes, count along the chain named. These are yes or no findings as the source states them, for the method shown. Some results given as binding are weak or reduced against the parent protein; the word gives no strength. Tags and fused reporters may be left off the sequences shown.

What all share (experiment): in situ cell surface binding assay (fluorescence microscopy); HEK293T conditioned medium with Nrxn2α-Fc applied for 1 h at 4°C to COS7 cells expressing HA-tagged IgSF21 forms, in extracellular solution with 2 mM CaCl2, 1.3 mM MgCl2; bound Fc signal divided by surface HA signal and normalised to IgSF21 WT
In test [1] the target is T1, IgSF21-HA D76E (mouse) (UniProt Q7TNR6).
T1 sequence: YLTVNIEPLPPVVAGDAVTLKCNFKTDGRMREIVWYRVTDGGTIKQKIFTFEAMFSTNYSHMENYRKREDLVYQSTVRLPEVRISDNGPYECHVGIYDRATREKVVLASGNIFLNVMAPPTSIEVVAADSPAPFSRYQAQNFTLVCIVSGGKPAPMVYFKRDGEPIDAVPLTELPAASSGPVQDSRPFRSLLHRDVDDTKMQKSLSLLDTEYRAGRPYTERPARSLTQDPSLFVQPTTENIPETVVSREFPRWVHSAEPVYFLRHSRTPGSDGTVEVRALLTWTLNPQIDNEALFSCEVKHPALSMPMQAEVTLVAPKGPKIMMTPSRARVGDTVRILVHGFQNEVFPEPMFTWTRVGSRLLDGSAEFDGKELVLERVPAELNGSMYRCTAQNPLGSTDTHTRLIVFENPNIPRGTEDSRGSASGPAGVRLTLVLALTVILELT

Test [2] deals with T2, IgSF21-HA R102D (mouse) (UniProt Q7TNR6).
T2 sequence: T1 sequence with E52D, R78D

Test [3] concerns the target T3, IgSF21-HA R55K (mouse) (UniProt Q7TNR6).
T3 sequence: T1 sequence with R31K, E52D

The target in test [4] is T4, IgSF21-HA D76K (mouse) (UniProt Q7TNR6).
T4 sequence: T1 sequence with E52K

For test [5], the target named is T5, IgSF21-HA E56D (mouse) (UniProt Q7TNR6).
T5 sequence: T1 sequence with E32D, E52D

Turning to “soluble Fc-tagged mouse Nrxn2α ectodomain (Nrxn2α-Fc) (from UniProt E9Q7X7 29-1634) (Fc fusion)”, the binding result is recorded as “no binding” in test [1]; “binds” in test [2]; “no binding” in test [3]; “no binding” in test [4]; “no binding” in test [5].
